Experimental data as given in patent US20050075282A1, “Materials and methods for inhibiting the development of epilepsy” (priority 2003, published 2005).
At least one structure is not confirmed: it was looked up by name or label, or the drawing left a doubt.

Test system: AMPAR
Assay: Whole cell voltage clamp of isolated DGCs, response to kainate + cyclothiazide, after in vivo HDAC inhibitor treatment
Parameters: species or system rats
Settings: DGCs 1 Wk post SE; TSA i.p. post SE (FIG. 6)

In the case of CC(/C=C/C(=O)NO)=C\[C@@H](C)C(=O)c1ccc(N(C)C)cc1 [TSA, Trichostatin A], the “AMPA receptor current density” value is reported as 213.7.1±23.3 pA/pF.
